Source: PubChem BioAssay AID540275 (National Center for Advancing Translational Sciences (NCATS), 2011)
Screen size: about 320,000 compounds; about 620 (0.19%) were called active. Inconclusive means that the source gave no clear call. Such entries were picked first, then a sample of the others. No stated cut-off is given here; in the data, active means activation above about 80%; inconclusive means between about 30% and that limit; inactive means weaker than that.

Amino acid sequences for entries named in this document (tags omitted).
UniProt Q8NER1, whole entry, looked up: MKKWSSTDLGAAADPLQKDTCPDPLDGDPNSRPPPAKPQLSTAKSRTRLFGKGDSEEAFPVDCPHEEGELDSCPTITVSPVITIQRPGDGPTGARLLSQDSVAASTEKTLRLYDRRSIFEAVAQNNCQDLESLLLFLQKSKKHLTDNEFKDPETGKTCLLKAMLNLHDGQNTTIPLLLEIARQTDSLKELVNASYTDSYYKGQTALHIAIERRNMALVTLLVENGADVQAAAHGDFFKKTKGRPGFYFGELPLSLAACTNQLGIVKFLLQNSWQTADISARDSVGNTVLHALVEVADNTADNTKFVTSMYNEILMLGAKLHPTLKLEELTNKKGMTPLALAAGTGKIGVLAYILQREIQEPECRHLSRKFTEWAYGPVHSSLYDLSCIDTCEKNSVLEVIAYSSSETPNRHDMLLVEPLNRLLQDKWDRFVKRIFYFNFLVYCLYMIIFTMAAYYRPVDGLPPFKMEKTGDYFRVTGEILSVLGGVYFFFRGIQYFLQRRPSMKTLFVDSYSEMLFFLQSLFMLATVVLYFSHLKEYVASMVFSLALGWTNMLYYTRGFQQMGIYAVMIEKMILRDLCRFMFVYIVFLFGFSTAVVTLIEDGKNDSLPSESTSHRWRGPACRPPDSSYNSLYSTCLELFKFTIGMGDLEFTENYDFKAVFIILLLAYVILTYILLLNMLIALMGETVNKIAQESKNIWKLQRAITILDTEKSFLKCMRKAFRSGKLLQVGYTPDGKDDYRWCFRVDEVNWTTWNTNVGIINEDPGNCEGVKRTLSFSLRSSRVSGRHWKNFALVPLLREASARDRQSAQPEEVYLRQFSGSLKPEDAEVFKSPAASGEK

biological target: Transient receptor potential cation channel subfamily V member 1 (Homo sapiens) (UniProt Q8NER1); test: HTS Assay for Compounds that Act as Agonists of the Vanilloid Receptor 1; details: TRPV1-expressing cells, Fluo-8 calcium influx, agonist mode; at 8.33 µM, stronger effect = higher value; further: 0% is about no effect
In short: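 Fluo-8 calcium influx in TRPV1-expressing cells, kinetic read (ex 480/em 520 nm). Compound added and read 3 min for agonist activity, followed by capsaicin at EC20 final and 2 min further read for enhancement.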

Row | Structure (SMILES) | activation
1 | Brc1cccc(-c2nnc(-c3ccccc3)o2)c1 | inconclusive: 31%
2 | NC(=O)c1ccc(/C(N)=N/S(=O)(=O)c2cc(C(F)(F)F)cc(C(F)(F)F)c2)cc1 | inconclusive: 46.4%
3 | Cc1ccc(C)c(C(=O)COC(=O)CCN2C(=O)C3C4CCC(C4)C3C2=O)c1 (stereo unspecified) | inactive: 2.34%
4 | COc1ccc(/C=C(\NC(=O)c2ccc([N+](=O)[O-])cc2)C(=O)NCCCn2ccnc2)cc1 | inactive: 0.0175%
5 | CN(C)S(=O)(=O)c1cccc(COC(=O)c2cnccn2)c1 | inactive: -0.656%
6 | Nc1nonc1-n1nnc(C(=O)N/N=C/c2ccccn2)c1CNc1ccccc1 | inconclusive: 55.6%
7 | CCN(CC)S(=O)(=O)c1ccc(N2CCOCC2)c(NCC(=O)Nc2ccc(F)cc2)c1 | inconclusive: 32.5%
8 | O=C(CSc1nc2ccccc2nc1N1CCOCC1)Nc1ccccc1F | inconclusive: 41.8%
9 | COc1ccc(NC(=O)COC(=O)C23CC4CC(CC(Cl)(C4)C2)C3)c(OC)c1 | inconclusive: 48.2%
10 | O=C(Nc1ccc(Cc2ccncc2)cc1)c1ccc(Cl)c([N+](=O)[O-])c1 | inconclusive: 52.2%
11 | Cc1cc(=O)[nH]c(N2CCN(C(c3ccccc3)c3ccccc3)CC2)n1 | inconclusive: 73.3%
12 | O=C(/C=C/c1ccc(-c2ccccc2)cc1)NCc1cccnc1 | inconclusive: 72.8%
13 | COc1ccc(CN2C(=O)C(Cc3ccccc3)Nc3ncnc(N4CCCCC4)c32)cc1 (stereo unspecified) | inconclusive: 42.5%
14 | O=C(CSC1=NCCS1)Nc1ccc(S(=O)(=O)N2CCCCCC2)cc1 | inconclusive: 43.9%
15 | CCOC(=O)Cc1csc(SCC(=O)NC(C)C23CC4CC(CC(C4)C2)C3)n1 (stereo unspecified) | inconclusive: 40.9%
16 | CCC(C)N(C(=O)Cn1nnc(-c2ccc(F)cc2)n1)C1CCS(=O)(=O)C1 (stereo unspecified) | inconclusive: 40.8%
17 | CCCNC(=O)C(Cc1ccc(C(F)(F)F)cc1)NC(=O)c1ccc(C#N)cc1 (stereo unspecified) | inconclusive: 34.3%
18 | O=C1CN(C(=O)COc2ccc(F)cc2Br)c2ccccc2N1 | inactive: -4.54%
19 | Cn1c(SCc2ccc(Br)cc2)nnc1-c1ccccn1 | inactive: 7.08%

Row | Structure (SMILES) | activation
20 | O=C(N/N=C/c1c[nH]c2ccccc12)C1CC(=O)N(c2ccccc2)C1 (stereo unspecified) | inconclusive: 58.5%
21 | CC1CCCC(C)N1C(=O)CSCc1ccc(Cl)cc1 (stereo unspecified) | inconclusive: 35.7%
22 | O=C(Nc1ccc(F)c(Cl)c1)c1ccc2c(c1)OCO2 | inconclusive: 63.5%
23 | CCOC(=O)N1CCN(S(=O)(=O)c2ccc(NC(C)=O)cc2)CC1 | inactive: 2.19%
24 | COc1ccccc1Nc1nc(N)nc(CN2CCCCC2)n1 | inactive: -8.94%
25 | Cn1nc(C(F)(F)F)c2cc(C(=O)Nc3ccc(F)cc3F)sc21 | inconclusive: 31.8%
26 | O=C(NC1CCCC1)C(c1ccccc1F)N(C(=O)Cc1cccs1)c1ccc2c(c1)OCCO2 (stereo unspecified) | inconclusive: 38.8%
27 | CN(C)c1ccnc(N(Cc2ccccc2)Cc2ccccc2)c1C#N | inconclusive: 55.4%
28 | Cn1c(-c2ccc(F)cc2)cnc1SCC(=O)Nc1ccccc1 | inconclusive: 30.5%
29 | O=C(Nc1cccc([N+](=O)[O-])c1)c1ccc(-c2ccccc2)cc1 | active: 86.9%
30 | CC(C(=O)Nc1ccc(O)cc1)c1cccc(C(=O)c2ccccc2)c1 (stereo unspecified) | inconclusive: 74.9%
31 | Cc1ccccc1COC[C@H](CC(C)C)N1CCN(C(=O)c2cccc(C(F)(F)F)c2)CCC1=O | inconclusive: 55.6%
32 | CCN(Cc1ccccc1)C(=O)c1cccc(S(=O)(=O)N2CCN(Cc3ccccc3)CC2)c1 | inconclusive: 35%
33 | CC(C)c1cc(C(=O)N2CCN(C(c3ccccc3)c3ccccc3)CC2)no1 | inconclusive: 44.5%
34 | O=C(COC(=O)/C=C/c1ccc2c(c1)OCO2)Nc1ccccc1 | inconclusive: 51.3%
35 | CCCCOC(=O)Cn1c(=O)n(CC(=O)OCCCC)c2ccccc21 | inactive: 22.1%
36 | O=C(Nc1cccc2cccnc12)C(Cl)(Cl)Cl | inactive: 2.88%
37 | CCOC(=O)/C(=C/c1c2ccccc2cc2ccccc12)NC(=O)c1ccccc1 | inconclusive: 44.7%
38 | O=C(COC(=O)c1ccccc1Nc1ccccc1)NCc1ccccc1 | inconclusive: 48.6%

Ordered by SMILES length (rising): some entries from above
Row | Structure (SMILES) | activation
25 | Cn1nc(C(F)(F)F)c2cc(C(=O)Nc3ccc(F)cc3F)sc21 | inconclusive: 31.8%
14 | O=C(CSC1=NCCS1)Nc1ccc(S(=O)(=O)N2CCCCCC2)cc1 | inconclusive: 43.9%
17 | CCCNC(=O)C(Cc1ccc(C(F)(F)F)cc1)NC(=O)c1ccc(C#N)cc1 (stereo unspecified) | inconclusive: 34.3%

The list goes on:

Row | Structure (SMILES) | activation
39 | CCOc1ccc(-n2nc3ccc(N)cc3n2)cc1 | inactive: -1.09%
40 | COc1ccc(-c2nc(CS(=O)(=O)CC(=O)NCc3ccccc3Br)c(C)o2)cc1 | inconclusive: 36.4%
41 | COc1ccc(C(=O)CCN2CCN(c3ccc(OC)cc3)CC2)cc1 | inactive: 7.57%
42 | O=C1C=C(c2ccc3[nH]ccc3c2)C[C@@H](c2ccc(Cl)cc2)C1 | inconclusive: 41.6%
43 | Cc1ccccc1Oc1nnc(-c2cccs2)c2ccccc12 | inconclusive: 37.5%
44 | O=C(CSc1nc2ccccc2n1S(=O)(=O)c1ccccc1)N1CCCCC1 | inconclusive: 55.4%
45 | COc1ccc(CN(C)C(=O)C23CC4CC(CC(Cl)(C4)C2)C3)c(OC)c1OC | inconclusive: 37.7%
46 | O=c1c2cc(Cl)ccc2[nH]c(=S)n1Cc1cccs1 | inconclusive: 33.6%
47 | Cc1ccccc1NCCC(=O)Nc1ccc(F)cc1 | inconclusive: 41.6%
48 | C=CCn1c(C2CCCCC2)n[nH]c1=S | inactive: 0.434%
49 | Cc1[nH]nc2c1C(C1CC=CCC1)C(C#N)=C(N)O2 (stereo unspecified) | inactive: -0.133%
50 | O=C(/C=C/c1c(Cl)cccc1Cl)n1cccn1 | inactive: 0.193%
51 | O=S(=O)(NCc1c(Cl)cccc1Oc1ccccc1)c1ccc(F)cc1 | inconclusive: 32.7%
52 | COc1ccc(N=C2SC(CC(=O)Nc3ccccc3)C(=O)N2Cc2ccccn2)cc1 (stereo unspecified) | inconclusive: 36.1%
53 | COc1ccc(/C=N/N2CCN(c3ccc(Cl)cc3)CC2)cc1 | inactive: 0.341%
54 | Cc1cccc2sc(NC(=O)c3ccc(Cl)s3)nc12 | inconclusive: 33.5%
55 | COc1ccc(/C=N/NC(=O)c2nnn(-c3nonc3N)c2-c2cccs2)cc1OC | inconclusive: 65.6%
56 | COCCNc1nnnc2c1sc1nc(N3CCOCC3)c3c(c12)CC(C)(C)OC3 | inactive: 0.991%
